## Results from one PubChem assay

Data taken from PubChem BioAssay AID1035470, deposited by Broad Institute (2014).

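Wild-type GFP-tagged E. coli compared with a G2058-humanized RFP-tagged strain; fluorescence read after 24 hours of exposure.
The value is the change in activity at the top tested concentration; more negative means stronger inhibition.
Active means the normal-ribosome signal drops at least twice as much as the mutant signal without a large loss of growth; inconclusive means no clear call.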

All entries here are filed as inconclusive.
These entries are mostly ones the record files as inconclusive; other results of the assay are not listed here.

For CC(C)(C)c1ccc(C(CC(=O)O)NC(=O)Cc2ccc(Cl)cc2)cc1 (centres unmarked) [at 50 µM (top of the series)] the result was activity change -12.44. O=C(NCc1ccc(S(=O)(=O)Nc2ccccc2Cl)s1)c1ccccc1 [at 50 µM (top of the series)] read activity change -6.61. CCOC(=O)c1nc(S(C)(=O)=O)ncc1Cl [at 50 µM (top of the series)] read activity change -15.06. For CC[N+](CC)(CC#Cc1ccccc1)CC(=O)c1ccc(Cl)cc1 [at 50 µM (top of the series)] the result was activity change -16.67. For COCCCNc1ccn2nc(-c3ccccc3)cc2n1 [at 50 µM (top of the series)] the result was activity change -4.724. For CCN(Cc1ccccc1)C(=O)COC(=O)c1cc(Cl)nc(Cl)c1 [at 50 µM (top of the series)] the result was activity change -2.375. Result for COc1ccccc1C1CCN(Cc2cccc([N+](=O)[O-])c2)CC1 [at 50 µM (top of the series)] was activity change -4.275.

Cc1ccc(NC(=O)c2ccc(NCCCN3CCC(C)CC3)c([N+](=O)[O-])c2)cc1F [at 50 µM (top of the series)] read activity change -7.528. O=C(NCC(c1ccc(F)cc1)N1CCOCC1)c1ccc([N+](=O)[O-])o1 (centres unmarked) [at 50 µM (top of the series)] read activity change -15.82. For O=C(Nc1ccc(S(=O)(=O)NC2=NCCCCC2)cc1)c1ccc([N+](=O)[O-])s1 [at 50 µM (top of the series)] the result was activity change -19.81. For O=C(c1cccc2c1-c1ccccc1C2)N1CCCCC1 [at 50 µM (top of the series)] the result was activity change 5.877. Cc1ccc(NC(=O)c2ccc([N+](=O)[O-])o2)cc1S(=O)(=O)N1CCOCC1 [at 50 µM (top of the series)] gave activity change -17.58. C[C@H]1CCCCO[C@H](CN(C)C(=O)CCCN(C)C)[C@@H](C)CN([C@@H](C)CO)C(=O)c2cc(NC(=O)Nc3cccc4ccccc34)ccc2O1 [at 50 µM (top of the series)] read activity change -4.472. Result for c1ccc2c(c1)CSc1ccccc1N2 [at 50 µM (top of the series)] was activity change -7.153.

With Cc1noc(C)c1NC(=O)Nc1ccc2c(c1)C(=O)N([C@H](C)CO)C[C@@H](C)[C@@H](CN(C)C(=O)Nc1ccc3c(c1)OCO3)OCCCC[C@@H](C)O2 [at 50 µM (top of the series)] the assay gave activity change -14.87. With Cc1ccc(C(=O)Nc2cccc(N(C)S(C)(=O)=O)c2)cc1S(=O)(=O)Nc1ccccc1 [at 50 µM (top of the series)] the assay gave activity change -6.646. With O=C(N[C@H]1CC1c1ccccc1)c1ccc([N+](=O)[O-])cc1 (some centres unmarked) [at 50 µM (top of the series)] the assay gave activity change -7.942. Result for Cn1cc([N+](=O)[O-])c(C(=O)Nc2ccc(-c3nc4ccccc4[nH]3)cc2)n1 [at 50 µM (top of the series)] was activity change -41.4. With C[C@@H]1CCCCO[C@H](CN(C)C(=O)CCCN(C)C)[C@H](C)CN([C@H](C)CO)C(=O)c2cc(NC(=O)Nc3cccc4ccccc34)ccc2O1 [at 50 µM (top of the series)] the assay gave activity change -22.38. With COc1cc(-c2ccc(N3C(c4ccsc4)=Cc4ccc(F)cc4C3c3c[nH]c4ccc(C#N)cc34)cc2)cc(OC)c1OC (centres unmarked) [at 50 µM (top of the series)] the assay gave activity change 17.83. With Cc1noc(C)c1NC(=O)Nc1ccc2c(c1)C(=O)N([C@@H](C)CO)C[C@H](C)[C@H](CN(C)C(=O)Nc1ccc3c(c1)OCO3)OCCCC[C@H](C)O2 [at 50 µM (top of the series)] the assay gave activity change 27.95.

Cc1noc(C)c1NC(=O)Nc1ccc2c(c1)C(=O)N([C@@H](C)CO)C[C@@H](C)[C@@H](CN(C)C(=O)Nc1ccc3c(c1)OCO3)OCCCC[C@@H](C)O2 [at 50 µM (top of the series)] read activity change -7.477. COc1ccc(-c2ccccc2)cc1NC(=O)c1ccncc1 [at 50 µM (top of the series)] read activity change -11.73. With COc1cc2[nH]c(=S)nc(NCc3ccccc3)c2cc1OC [at 50 µM (top of the series)] the assay gave activity change -21.28. Result for COc1ccc(NS(=O)(=O)c2ccc(NC(=O)c3ccccc3Br)cc2)nn1 [at 50 µM (top of the series)] was activity change -22.94. For O=C(O)c1cc(-c2cccs2)nn1-c1cccc(Cl)c1 [at 50 µM (top of the series)] the result was activity change -37.62. Result for Cc1ccc2oc(=O)n(CC(=O)OCCC(C)C)c2c1 [at 50 µM (top of the series)] was activity change 7.439. O=C(CSc1nc2ccccc2[nH]1)Nc1ccccc1F [at 50 µM (top of the series)] gave activity change -32.54.

3 of the entries, repeated:

{"structure": "COCCCNc1ccn2nc(-c3ccccc3)cc2n1", "tested on / at": "at 50 µM (top of the series)", "activity change": "-4.724"}
{"structure": "Cc1noc(C)c1NC(=O)Nc1ccc2c(c1)C(=O)N([C@@H](C)CO)C[C@H](C)[C@H](CN(C)C(=O)Nc1ccc3c(c1)OCO3)OCCCC[C@H](C)O2", "tested on / at": "at 50 µM (top of the series)", "activity change": "27.95"}
{"structure": "Cc1ccc(NC(=O)c2ccc([N+](=O)[O-])o2)cc1S(=O)(=O)N1CCOCC1", "tested on / at": "at 50 µM (top of the series)", "activity change": "-17.58"}